Experimental data from article PMC12034760, “FBL promotes hepatocellular carcinoma tumorigenesis and progression by recruiting YY1 to enhance CAD gene expression” (Cell Death & Disease, 2025).
No constants are given. Whether binding was seen depends on the method and setting. Binding seen in cells or lysates may run through a third protein. Some binding calls cover weakened binding; strength is not graded here. For some assays here: Where a sequence is shown, tags or fusion partners need not be part of it.

Sequences of proteins named here, by UniProt entry; tags and fusion partners are left off.
UniProt P25490: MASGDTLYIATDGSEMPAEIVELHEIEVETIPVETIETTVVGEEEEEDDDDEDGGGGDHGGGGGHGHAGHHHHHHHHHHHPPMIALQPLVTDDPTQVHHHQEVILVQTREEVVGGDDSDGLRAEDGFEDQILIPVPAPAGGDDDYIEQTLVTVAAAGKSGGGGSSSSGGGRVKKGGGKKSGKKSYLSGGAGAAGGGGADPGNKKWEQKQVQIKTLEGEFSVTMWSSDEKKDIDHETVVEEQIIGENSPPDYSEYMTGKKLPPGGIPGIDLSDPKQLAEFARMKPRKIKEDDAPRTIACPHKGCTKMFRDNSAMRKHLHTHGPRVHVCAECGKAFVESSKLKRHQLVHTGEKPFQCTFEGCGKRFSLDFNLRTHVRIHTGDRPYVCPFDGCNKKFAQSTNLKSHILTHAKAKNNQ

Key:
[1] = target: T1, FBL-TAD protein (transactivation domain of FBL) (UniProt P22087); assay: co-IP; IP of FBL-TAD proteins and YY1 in Huh-1 cells treated with different concentrations of fludarabine phosphate
T1 sequence: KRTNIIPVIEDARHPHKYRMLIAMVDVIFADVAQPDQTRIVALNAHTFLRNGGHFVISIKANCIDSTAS

[2] = target: T1, FBL-TAD protein (transactivation domain of FBL); assay: pull-down; FBL-TAD protein as bait, endogenous YY1 of Huh-1 and HCCLM3 cells
His-tagged FBL = target: T2, His-tagged FBL (UniProt P22087); assay: co-IP; His-tagged FBL and flag-tagged YY1 plasmids transiently transfected into HEK293T cells; immunoprecipitation with anti-His antibody, Western blot for flag-YY1 (the legend calls it an in vitro pull-down assay)
T2 sequence: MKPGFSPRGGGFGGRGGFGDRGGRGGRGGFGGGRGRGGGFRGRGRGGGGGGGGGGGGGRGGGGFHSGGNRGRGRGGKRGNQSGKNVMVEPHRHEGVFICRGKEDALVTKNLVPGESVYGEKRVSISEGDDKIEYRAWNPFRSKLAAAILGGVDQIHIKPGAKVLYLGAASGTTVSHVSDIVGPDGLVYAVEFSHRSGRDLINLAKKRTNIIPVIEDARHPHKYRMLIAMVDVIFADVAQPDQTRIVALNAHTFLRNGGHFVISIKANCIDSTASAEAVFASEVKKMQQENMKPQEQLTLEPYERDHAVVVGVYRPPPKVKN

flag-tagged YY1 = flag-tagged YY1 (UniProt P25490); assay: as above
[3] = target: endogenous YY1 (human (endogenous in Huh-1 and HCCLM3)) (UniProt P25490); assay: co-IP; endogenous proteins in HCCLM3 cells, with anti-FBL or anti-YY1 antibodies

## endogenous YY1 (from UniProt P25490 1-414)
[1]
  binding: binds
[2]
  binding: binds

## flag-tagged YY1 (from UniProt P25490 1-414)
His-tagged FBL
  binding: binds

B1: His-tagged FBL (protein, UniProt P22087 1-321)
chain: T2 sequence
flag-tagged YY1
  binding: binds

B2: endogenous FBL (protein, UniProt P22087 1-321)
chain: T2 sequence
[3]
  binding: binds
